Experimental data from PMC9275889.
These are yes or no findings as the source states them, for the method shown. Binding seen in cells or lysates may run through a third protein. Some binding calls cover weakened binding; strength is not graded here.

Protein sequences, listed by entry. Tags and fused reporters are not part of them. Lines headed by an entry give the natural chain unless they say otherwise; changes in a name come on top. Residues count along the entry.
UniProt Q9NPD8: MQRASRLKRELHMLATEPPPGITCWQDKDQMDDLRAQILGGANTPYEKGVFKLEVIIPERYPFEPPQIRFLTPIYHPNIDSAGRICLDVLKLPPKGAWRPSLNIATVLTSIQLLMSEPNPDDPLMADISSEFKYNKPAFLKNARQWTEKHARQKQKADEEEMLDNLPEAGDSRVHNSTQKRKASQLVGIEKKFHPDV
UniProt Q9UBX5, residues 24-448: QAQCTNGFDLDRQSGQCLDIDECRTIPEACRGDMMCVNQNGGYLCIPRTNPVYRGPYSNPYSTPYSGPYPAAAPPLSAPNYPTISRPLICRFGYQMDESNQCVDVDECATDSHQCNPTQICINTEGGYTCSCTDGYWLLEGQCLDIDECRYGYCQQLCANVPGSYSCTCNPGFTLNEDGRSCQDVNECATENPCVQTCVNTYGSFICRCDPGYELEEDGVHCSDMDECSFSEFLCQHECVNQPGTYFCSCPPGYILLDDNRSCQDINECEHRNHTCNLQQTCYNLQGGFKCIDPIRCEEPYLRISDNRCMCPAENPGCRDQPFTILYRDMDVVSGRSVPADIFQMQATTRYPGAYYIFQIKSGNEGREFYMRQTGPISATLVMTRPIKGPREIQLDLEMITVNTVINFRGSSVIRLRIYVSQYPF

Target: GST-UBE2T (ubiquitin-conjugating enzyme E2T) (human) (UniProt Q9NPD8)
Experiment: pull-down; GST-UBE2T on GST beads (3 h), then Flag-FBLN5 from H1975 cell lysate added for 3 h; washed five times; detected by western blotting; only the target purified

“Flag-FBLN5 (fibulin-5) (from UniProt Q9UBX5 24-448)” was tested, and the binding was “binds”.
